# Measurements published in the supplement of paper PMC7877785.
# ± gives the uncertainty stated by the source. Many of these values have a large error.
# Assay: self-splicing fitness, log relative to wild type (ln ratio); higher = more splicing; Tetrahymena group I intron in knt gene, E. coli kanamycin selection, DiMSum; sequences stand for … in CUCUCU…GGAGGGAAAAGUUAUCAGGCAUGCACCUGGUAGCUAGUCUUUAAACCAAUAGAUUGCAUCGGUUUAAAAGGCAAGACCGUCAAAUUGCGGGAAAGGGGUCAACAGCCGUUCAGUACCAAGUCUCAGGGGAAACUUUGAGAUGGCCUUGCAAAGGGUAUGGUAAUAAGCUGACGGACAUGGUCCUAACCACGCAGCCAAGUCCUAAGUCAACAGAUCUUCUGUUGAUAUGGAUGCAGUUCACAGACUAAAUGUCGGUCGGGGAAGAUGUAUUCUUCUCAUAAGAUAUAGUCGGACCUCUCCUUAAUGGGAGCUAGCGGAUGAAGUGAUGCAACACUGGAGCCGCUGGGAACUAAUUUGUAUGCGAAAGUAUAUUGAUUAGUUUUGGAGUACUCGUGGUCG
# How it was run: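 The eight P1ex-region nucleotides of an intron in the knt kanamycin-resistance gene on pET-22b(+) were all randomised and the library put into E. coli BL21(DE3). Six replicate transformations were grown overnight at 37°C or 30°C on LB agar with or without 25 μg/mL kanamycin, together with 100 μg/mL carbenicillin, 50 μM IPTG and 0.2% rhamnose. Colonies were pooled and amplicon-sequenced on an Illumina HiSeq 2500. Fitness from DiMSum is the error-weighted combination of wild-type-normalised replicate fold changes, kanamycin over none.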
sequence,measurement,setting,value
UUUAAGCAAUAUUACGAUGC,self-splicing fitness (ln),37 °C,-1.04 ± 0.59
UAGGAGCAAUAUUACGUCAU,self-splicing fitness (ln),30 °C,-4.05 ± 1
same,self-splicing fitness (ln),37 °C,-2.52 ± 1.1
CUCGAGCAAUAUUACGAUAC,self-splicing fitness (ln),30 °C,-3.88 ± 0.59
UGCGAGCAAUAUUACGAAAA,self-splicing fitness (ln),37 °C,-0.527 ± 0.56
GCGCAGCAAUAUUACGCCAC,self-splicing fitness (ln),30 °C,-2.61 ± 0.52
UCGUAGCAAUAUUACGCCAC,self-splicing fitness (ln),30 °C,-2.15 ± 0.69
same,self-splicing fitness (ln),37 °C,-1.6 ± 0.59
CCGCAGCAAUAUUACGCUUC,self-splicing fitness (ln),37 °C,-3.22 ± 0.52
CAGGAGCAAUAUUACGGCGG,self-splicing fitness (ln),30 °C,-0.542 ± 0.074
same,self-splicing fitness (ln),37 °C,-0.0448 ± 0.091
GGUAAGCAAUAUUACGCUUA,self-splicing fitness (ln),30 °C,-3.29 ± 0.53
UGAGAGCAAUAUUACGCGCU,self-splicing fitness (ln),37 °C,-1.2 ± 0.73
UCCAAGCAAUAUUACGCGAC,self-splicing fitness (ln),37 °C,-2.84 ± 0.54
GGACAGCAAUAUUACGCUAC,self-splicing fitness (ln),30 °C,-4.74 ± 0.27
same,self-splicing fitness (ln),37 °C,-2.33 ± 0.24
CGCCAGCAAUAUUACGAGUU,self-splicing fitness (ln),30 °C,-3.19 ± 0.15
same,self-splicing fitness (ln),37 °C,-3.16 ± 0.2
GGUUAGCAAUAUUACGUACC,self-splicing fitness (ln),30 °C,-2.09 ± 1.4
UUUGAGCAAUAUUACGUGGC,self-splicing fitness (ln),30 °C,-4.44 ± 0.59
same,self-splicing fitness (ln),37 °C,-2.66 ± 0.56
CAUGAGCAAUAUUACGCGUC,self-splicing fitness (ln),30 °C,-4.06 ± 0.59
GGGAAGCAAUAUUACGGAGA,self-splicing fitness (ln),30 °C,-2.62 ± 0.76
UGGAAGCAAUAUUACGAUUA,self-splicing fitness (ln),30 °C,-1.1 ± 0.11
same,self-splicing fitness (ln),37 °C,0.012 ± 0.12
UGCAAGCAAUAUUACGUACU,self-splicing fitness (ln),30 °C,-0.936 ± 0.13
same,self-splicing fitness (ln),37 °C,0.0223 ± 0.17
UGACAGCAAUAUUACGGUAU,self-splicing fitness (ln),30 °C,-3.58 ± 0.2
same,self-splicing fitness (ln),37 °C,-2.45 ± 0.21
AGGGAGCAAUAUUACGCAAU,self-splicing fitness (ln),30 °C,-3.43 ± 0.61
GUAGAGCAAUAUUACGCACA,self-splicing fitness (ln),30 °C,-0.23 ± 0.14
same,self-splicing fitness (ln),37 °C,-0.117 ± 0.14
UGGGAGCAAUAUUACGCCAA,self-splicing fitness (ln),30 °C,-2.56 ± 0.58
same,self-splicing fitness (ln),37 °C,-2.99 ± 0.75
GACUAGCAAUAUUACGCCGG,self-splicing fitness (ln),30 °C,-4.67 ± 1
UCAGAGCAAUAUUACGAGAA,self-splicing fitness (ln),30 °C,-2.14 ± 0.54
same,self-splicing fitness (ln),37 °C,-1.83 ± 0.52
UUAGAGCAAUAUUACGGUCA,self-splicing fitness (ln),30 °C,-1.7 ± 0.15
same,self-splicing fitness (ln),37 °C,-1.34 ± 0.14
CGGUAGCAAUAUUACGGGUU,self-splicing fitness (ln),30 °C,-3.51 ± 0.21
same,self-splicing fitness (ln),37 °C,-3.67 ± 0.22
UAGUAGCAAUAUUACGCAUC,self-splicing fitness (ln),37 °C,-1.6 ± 0.73
UCGGAGCAAUAUUACGAUGA,self-splicing fitness (ln),30 °C,-0.946 ± 0.15
same,self-splicing fitness (ln),37 °C,-1.11 ± 0.16
GGAUAGCAAUAUUACGCGGA,self-splicing fitness (ln),30 °C,-2.65 ± 0.43
same,self-splicing fitness (ln),37 °C,-1.57 ± 0.31
UGUAAGCAAUAUUACGCAAG,self-splicing fitness (ln),30 °C,-2.85 ± 0.39
same,self-splicing fitness (ln),37 °C,-2.66 ± 0.44
CUGCAGCAAUAUUACGCGGC,self-splicing fitness (ln),30 °C,-4.84 ± 0.51
same,self-splicing fitness (ln),37 °C,-2.63 ± 0.34
UUGAAGCAAUAUUACGAAAC,self-splicing fitness (ln),30 °C,-3.86 ± 1
same,self-splicing fitness (ln),37 °C,-2.22 ± 0.64
ACUCAGCAAUAUUACGCGGC,self-splicing fitness (ln),37 °C,-4.44 ± 0.51
CGCGAGCAAUAUUACGCCCA,self-splicing fitness (ln),37 °C,-1.37 ± 1.2
ACGGAGCAAUAUUACGGUGC,self-splicing fitness (ln),30 °C,-3.94 ± 0.59
same,self-splicing fitness (ln),37 °C,-1.28 ± 0.51
AGUCAGCAAUAUUACGCGCU,self-splicing fitness (ln),30 °C,-3.02 ± 0.14
same,self-splicing fitness (ln),37 °C,-1.86 ± 0.21
GCACAGCAAUAUUACGGGCC,self-splicing fitness (ln),30 °C,-4.88 ± 0.58
AGUGAGCAAUAUUACGCGCU,self-splicing fitness (ln),30 °C,-2.5 ± 0.69
UCGGAGCAAUAUUACGAAAU,self-splicing fitness (ln),37 °C,-1.91 ± 0.68
CGGUAGCAAUAUUACGACUA,self-splicing fitness (ln),30 °C,-0.298 ± 0.14
same,self-splicing fitness (ln),37 °C,0.0316 ± 0.16
CUGCAGCAAUAUUACGCAAC,self-splicing fitness (ln),30 °C,-5.2 ± 1
same,self-splicing fitness (ln),37 °C,-4.08 ± 1
CGGAAGCAAUAUUACGUAAC,self-splicing fitness (ln),30 °C,-5.76 ± 1
UAUAAGCAAUAUUACGCCGG,self-splicing fitness (ln),30 °C,-0.545 ± 0.16
same,self-splicing fitness (ln),37 °C,-0.0733 ± 0.18
GCGCAGCAAUAUUACGCGGC,self-splicing fitness (ln),30 °C,-2.66 ± 0.5
CUUCAGCAAUAUUACGAUCA,self-splicing fitness (ln),30 °C,-3.23 ± 0.53
GAAGAGCAAUAUUACGGAGC,self-splicing fitness (ln),30 °C,-3.39 ± 1
GGAUAGCAAUAUUACGCGUC,self-splicing fitness (ln),37 °C,-2.71 ± 0.76
AUCGAGCAAUAUUACGCCGA,self-splicing fitness (ln),37 °C,-2.05 ± 1.1
UGCAAGCAAUAUUACGCUCA,self-splicing fitness (ln),30 °C,-0.11 ± 0.16
same,self-splicing fitness (ln),37 °C,0.138 ± 0.2
GGUGAGCAAUAUUACGAACU,self-splicing fitness (ln),37 °C,-1.88 ± 1.2
GCGGAGCAAUAUUACGUUUA,self-splicing fitness (ln),30 °C,-2.11 ± 0.57
AUAAAGCAAUAUUACGCCAC,self-splicing fitness (ln),37 °C,-1.75 ± 0.52
UCUCAGCAAUAUUACGCUCA,self-splicing fitness (ln),30 °C,-3.47 ± 0.63
AGGGAGCAAUAUUACGAAUC,self-splicing fitness (ln),30 °C,-5.26 ± 1
UCGUAGCAAUAUUACGACGC,self-splicing fitness (ln),30 °C,-3.06 ± 1.1
same,self-splicing fitness (ln),37 °C,-1.95 ± 0.53
CGGAAGCAAUAUUACGGGCC,self-splicing fitness (ln),30 °C,-2.94 ± 0.51
same,self-splicing fitness (ln),37 °C,-2.89 ± 0.61
GUUGAGCAAUAUUACGCACG,self-splicing fitness (ln),37 °C,-1.54 ± 0.66
UUUUAGCAAUAUUACGCGGC,self-splicing fitness (ln),30 °C,-4.26 ± 1
